Measured values as given in paper doi:10.1101/2025.04.27.650876.
Results are given in words; binding and its absence hold for the method and conditions named. Some entries that bind do so weakly or less than the wild type. Tags and fused reporters may be left off the sequences shown. Each block holds one binder with its values, some of them ahead of it.

How the values were obtained:
[1] = target: recombinant DPPA2-Myc/Flag (human) (UniProt Q7Z7J5); test: mass photometry
[2] = target: T1, recombinant His-DPPA4 (human) (UniProt Q7L190); test: mass photometry
T1 sequence: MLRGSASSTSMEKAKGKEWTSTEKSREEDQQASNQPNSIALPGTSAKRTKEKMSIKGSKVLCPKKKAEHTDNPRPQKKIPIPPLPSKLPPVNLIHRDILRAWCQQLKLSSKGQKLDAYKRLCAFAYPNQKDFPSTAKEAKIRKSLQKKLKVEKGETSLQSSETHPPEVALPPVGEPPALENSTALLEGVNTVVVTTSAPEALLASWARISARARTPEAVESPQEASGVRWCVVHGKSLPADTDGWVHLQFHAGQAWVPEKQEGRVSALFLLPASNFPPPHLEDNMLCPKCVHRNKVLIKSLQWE

binding [1]: binds
binding [2]: binds
B1: recombinant DPPA2-Myc/Flag (protein, UniProt Q7Z7J5 1-298)
chain: MSDANLDSSKKNFLEGEVDDEESVILTLVPVKDDANMEQMEPSVSSTSDVKLEKPKKYNPGHLLQTNEQFTAPQKARCKIPALPLPTILPPINKVCRDTLRDWCQQLGLSTNGKKIEVYLRLHRHAYPEQRQDMPEMSQETRLQRCSRKRKAVTKRARLQRSYEMNERAEETNTVEVITSAPGAMLASWARIAARAVQPKALNSCSIPVSVEAFLMQASGVRWCVVHGRLLSADTKGWVRLQFHAGQAWVPTTHRRMISLFLLPACIFPSPGIEDNMLCPDCAKRNKKMMKRLMTVEK

binding [2]: binds
B2: recombinant His-DPPA4 (protein, UniProt Q7L190 1-304)
chain: T1 sequence
